Data taken from patent US10471119B2, “Composition for preventing, ameliorating, or treating neurological disease containing osmotin peptide as active ingredient” (INDUSTRY-ACADEMIC COOPERATION FOUNDATION GYEONGSANG …, priority 2015, dated 2019).
Not every detail of the peptide structures is certain; ends, links or a residue may be inferred. Residues, ends and D or L forms follow the SMILES beside them.

Assays:
[1] = system: primary hippocampal neurons; assay: In vitro electrophysiological analysis, AMPAR-mediated mEPSCs; assay type: cell-based, Sprague-Dawley rats; settings: Aβ group treated with osmotin peptide, versus Aβ group, statistically significant, FIG. 16
[2] = system: hippocampal cell line HT22; assay: ApoTox-Glo Triplex assay (cell viability); assay type: cell-based; settings: HT22, 0.5 to 20 μM, 24 hours, FIG. 1
[3] = system: APP/PS1 model mouse; assay: Y-maze test; assay type: in vivo, mice; settings: 5 mg/kg/day i.p. for 45 days, FIG. 15D
[4] = system: human neuroblast line SH-SY5Y cells; assay: Morphological analysis using immunofluorescence in vitro (FITC-tagged osmotin-peptide); assay type: cell-based; settings: FITC-tagged osmotin-peptide 1, 5 and 10 μg, 24 hours, FIG. 2
[5] = system: APP/PS1 model group; assay: In vivo electrophysiology and LTP analysis in hippocampal slices (CA1); parameters: species or system mice; settings: APP/PS1 model group treated with osmotin peptide, FIGS. 17A to 17D
[6] = system: APP/PS1 mice; assay: Western blot analysis of hippocampus and cerebral cortex of treated APP/PS1 mice; assay type: in vivo
[7] = system: human neuroblast line SH-SY5Y; assay: ApoTox-Glo Triplex assay (cell viability, cytotoxicity, caspase-3 activity); assay type: cell-based
Method: Human neuroblast line SH-SY5Y cells were cultured in 100 μl of dulbecco modified eagle medium (DMEM) supplemented with 10% (v/v) fetal bovine serum (FBS) and 1% (w/v) antibiotic (penicillin-streptomycin) at 37° C. and under the condition of 5% CO2.
Cells were seeded in a 96-well plate containing growth medium (DMEM medium containing 10% FBS, 100 units/ml penicillin, and […] streptomycin) in such a way that 100 μl of the culture was seeded in every cell at the population of 2×10^4 cells, and cultured under the condition of 5% CO2 at 37° C. When cells were about 70-90% confluent, they were transformed with pCAX-APP Swe/Ind for 8 hours by using Lipofectamine 3000 according to the manufacturers instructions. Then, the medium was removed by suction and replaced with fresh 100 μl of growth medium containing 0.5 to 20 μM osmotin-peptide. The cells in the fresh medium were incubated for 24 hours.
After 24 hours, ApoTox-Glo™ Triplex assay using Glomax-Multi Detection system was performed according to the manufacturer's instructions to confirm cell viability, cytotoxicity assay, and caspase-3 activity.

[8] = system: APP/PS1 model mouse; assay: Morris water maze (MWM) test; assay type: in vivo, mice; settings: 5 mg/kg/day i.p. for 45 days
[9] = system: APP/PS1 mice; assay: Immunofluorescence / Thioflavin-S staining of brain sections of treated APP/PS1 mice; assay type: in vivo; settings: IP once per day for 45 days
[10] = hippocampus and cerebral cortex, FIG. 9
[11] = hippocampus and cerebral cortex, FIG. 10

## C[C@@H](O)[C@H](NC(=O)[C@@H]1CCCN1C(=O)CNC(=O)[C@H](CS)NC(=O)[C@@H]1CCCN1C(=O)CNC(=O)[C@H](CCC(N)=O)NC(=O)[C@@H](NC(=O)[C@@H](N)CS)[C@@H](C)O)C(=O)O [osmotin peptide] (H-CTQGPCGPT-OH)
[1]
  mEPSC frequency (Hz): enhanced
[2]
  cell viability: increased in proportion to the osmotin peptide treatment concentration
[3]
  spontaneous alteration: restored
[4]
  binding to cells (fluorescence image): bound to the cytoplasm of cells
[5]
  EPSC enhancement (LTP) after pairing stimulus: almost the same level of EPSC enhancement compared to the normal group
[6]; FIG. 11
  expression of PSD95 protein: increased in expression
  expression of SNAP25 protein: increased in expression
[6]; FIG. 12
  expression level of AdipoR1: increased
  expression level of pAMPK: increased
  expression level of total-AMPK: increased
[6]; FIG. 13
  expression level of NF-κB: decreased
  expression level of TNF-α: decreased
  expression level of p-IKKβ: decreased
  expression level of pJNK: decreased
[6]; FIG. 14
  expression level of p-PI3K: increased
  expression level of pAkt (Ser473): increased
[6]; [10]
  expression level of p-Tau (Ser404): markedly decreased
  expression level of p-Tau (Ser413): markedly decreased
[6]; [11]
  expression level of APP: markedly decreased
  expression level of Aβ oligomer: markedly decreased
  expression level of BACE-1 protein: markedly decreased
[7]; SH-SY5Y, 0.5 to 20 μM, 24 hours, FIG. 1
  cell viability: increased in proportion to the osmotin peptide treatment concentration
[7]; neuronal cells
  cell death: suppresses cell death
[8]; FIG. 15C
  time spent in the target quadrant (probe test): increased to almost the same level as that of the normal mouse
[8]; compared with the APP/PS1 model mice, FIG. 15B
  number of staying at the place where the platform had been located (probe test): increased
[8]; training for 5 days, FIG. 15A
  latency (time for finding the hidden escape platform): about 33 seconds
[9]; FIGS. 5A, 5B
  Tau-46 in the hippocampus and cerebral cortex: remarkably reduced
[9]; FIGS. 6A, 6B
  p-Tau (Ser 404) in the hippocampus and cerebral cortex: remarkably reduced
[9]; FIGS. 7, 8
  amyloid beta (Aβ) plaques in the hippocampus and cerebral cortex: remarkably reduced
